Data as given in the supplement of paper PMC6411743.
± gives the standard deviation of the averaged measurements. The entries are a selection whose mix differs from that of the whole data set.

Experiments:
Assay in all cases: NP40-soluble protein abundance relative to vehicle (solubility fold change) (ratio); higher = more soluble protein in presence of AMP-PNP
[1] = target: T1, C9JI46 and related entries (UniProt Q8N3X6)
T1 sequence (whole entry): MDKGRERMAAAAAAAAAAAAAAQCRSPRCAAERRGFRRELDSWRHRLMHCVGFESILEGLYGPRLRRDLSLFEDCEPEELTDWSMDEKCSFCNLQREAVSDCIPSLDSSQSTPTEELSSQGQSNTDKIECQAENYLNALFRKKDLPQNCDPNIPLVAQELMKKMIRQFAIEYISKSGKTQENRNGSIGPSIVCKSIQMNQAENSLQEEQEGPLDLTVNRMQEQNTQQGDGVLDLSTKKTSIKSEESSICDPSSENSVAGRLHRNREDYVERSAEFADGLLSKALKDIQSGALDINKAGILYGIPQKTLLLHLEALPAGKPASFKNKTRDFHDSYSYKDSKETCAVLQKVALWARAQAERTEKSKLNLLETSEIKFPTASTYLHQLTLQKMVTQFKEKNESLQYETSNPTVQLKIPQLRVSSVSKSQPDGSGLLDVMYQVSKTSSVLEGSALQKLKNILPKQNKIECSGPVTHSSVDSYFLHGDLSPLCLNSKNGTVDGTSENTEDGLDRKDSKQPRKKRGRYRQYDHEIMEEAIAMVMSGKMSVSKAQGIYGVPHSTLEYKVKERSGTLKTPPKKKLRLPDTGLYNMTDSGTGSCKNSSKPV
How it was run: (§1)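 Jurkat crude lysate prepared with a Dounce homogeniser was treated at eight concentrations spanning 0.1 to 10 mM, 10 min at room temperature then 3 min at 37 °C. Solubilisation with 0.8% NP40 and benzonase and ultracentrifugation preceded TMT labelling of the supernatant for LC-MS/MS. Fold change against the detergent-processed vehicle was determined per replicate from vsn-normalised intensities, across three independent experiments.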

[2] = target: T2, C9JLB7 and related entries (UniProt Q96HP4)
T2 sequence (whole entry): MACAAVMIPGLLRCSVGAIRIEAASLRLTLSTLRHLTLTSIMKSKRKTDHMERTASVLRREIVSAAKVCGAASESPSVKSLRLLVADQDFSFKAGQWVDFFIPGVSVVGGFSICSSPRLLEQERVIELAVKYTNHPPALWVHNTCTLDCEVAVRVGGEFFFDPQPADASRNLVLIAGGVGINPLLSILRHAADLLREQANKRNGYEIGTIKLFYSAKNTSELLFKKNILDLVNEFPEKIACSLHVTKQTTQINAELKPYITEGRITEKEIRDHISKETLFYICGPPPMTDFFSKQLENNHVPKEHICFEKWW
How it was run: as §1

[3] = target: T3, D6R9V8 and related entries (UniProt Q9UKY7)
T3 sequence (whole entry): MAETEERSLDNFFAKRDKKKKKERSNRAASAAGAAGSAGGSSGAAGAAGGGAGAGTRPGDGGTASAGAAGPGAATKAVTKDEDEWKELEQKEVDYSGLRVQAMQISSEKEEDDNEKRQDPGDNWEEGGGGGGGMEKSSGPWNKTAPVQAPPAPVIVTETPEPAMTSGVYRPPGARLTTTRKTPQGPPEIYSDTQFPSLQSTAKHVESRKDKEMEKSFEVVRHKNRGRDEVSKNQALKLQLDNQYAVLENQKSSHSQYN
How it was run: as §1

[4] = target: T4, UniProt A2RTX5 and related entries
T4 sequence (whole entry): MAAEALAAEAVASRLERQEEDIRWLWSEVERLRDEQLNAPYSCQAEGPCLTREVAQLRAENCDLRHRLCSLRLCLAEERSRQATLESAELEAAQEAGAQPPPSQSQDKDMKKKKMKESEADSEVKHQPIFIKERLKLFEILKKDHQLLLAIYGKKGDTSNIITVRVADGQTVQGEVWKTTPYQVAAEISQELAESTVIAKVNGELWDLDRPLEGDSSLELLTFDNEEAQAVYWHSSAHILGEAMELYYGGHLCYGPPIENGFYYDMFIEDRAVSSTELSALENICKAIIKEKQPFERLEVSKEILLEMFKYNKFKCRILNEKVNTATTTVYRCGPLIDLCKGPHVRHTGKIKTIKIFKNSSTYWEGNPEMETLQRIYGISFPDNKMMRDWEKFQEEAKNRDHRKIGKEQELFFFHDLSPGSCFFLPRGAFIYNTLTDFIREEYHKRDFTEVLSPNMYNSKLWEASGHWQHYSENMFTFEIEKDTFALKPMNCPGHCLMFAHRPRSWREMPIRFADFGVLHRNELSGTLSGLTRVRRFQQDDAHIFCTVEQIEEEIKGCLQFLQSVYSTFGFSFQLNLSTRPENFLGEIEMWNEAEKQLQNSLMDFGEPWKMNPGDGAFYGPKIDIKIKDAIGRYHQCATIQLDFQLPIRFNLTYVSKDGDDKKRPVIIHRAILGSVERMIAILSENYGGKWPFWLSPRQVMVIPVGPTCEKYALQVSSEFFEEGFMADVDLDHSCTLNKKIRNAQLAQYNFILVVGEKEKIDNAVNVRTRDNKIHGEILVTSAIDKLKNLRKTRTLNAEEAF
How it was run: as §1

Nc1ncnc2c1ncn2[C@@H]1O[C@H](COP(=O)(O)OP(=O)(O)NP(=O)(O)O)[C@@H](O)[C@H]1O [adenylyl imidodiphosphate] was tested, and the NP40-soluble protein abundance ([1]; concentration: 2mM) was 1.024 ± 0.0091, the NP40-soluble protein abundance ([1]; concentration: 4mM) was 1.01 ± 0.058 and the NP40-soluble protein abundance ([1]; concentration: 6mM) was 0.992 ± 0.017. For the same compound, the NP40-soluble protein abundance ([1]; concentration: 8mM) was 0.952 ± 0.014, the NP40-soluble protein abundance ([1]; concentration: 10mM) was 1 ± 0.039 and the NP40-soluble protein abundance ([2]; concentration: 1mM) was 1.01 ± 0.019. It also gave an NP40-soluble protein abundance ([2]; concentration: 2mM) of 0.96 ± 0.029, an NP40-soluble protein abundance ([2]; concentration: 4mM) of 0.976 ± 0.037 and an NP40-soluble protein abundance ([2]; concentration: 6mM) of 0.984 ± 0.022. For the same compound, the NP40-soluble protein abundance ([2]; concentration: 8mM) was 0.98 ± 0.045, the NP40-soluble protein abundance ([2]; concentration: 10mM) was 0.935 ± 0.044 and the NP40-soluble protein abundance ([3]; concentration: 1mM) was 1.03 ± 0.021. It also gave an NP40-soluble protein abundance ([3]; concentration: 2mM) of 1.09 ± 0.089, an NP40-soluble protein abundance ([3]; concentration: 4mM) of 1.03 ± 0.034 and an NP40-soluble protein abundance ([3]; concentration: 6mM) of 1.04 ± 0.034. It also gave an NP40-soluble protein abundance ([3]; concentration: 8mM) of 0.993 ± 0.028, an NP40-soluble protein abundance ([3]; concentration: 10mM) of 1.05 ± 0.07 and an NP40-soluble protein abundance ([4]; concentration: 1mM) of 1.05 ± 0.021. The NP40-soluble protein abundance ([4]; concentration: 2mM) was 0.998 ± 0.05, the NP40-soluble protein abundance ([4]; concentration: 4mM) was 1 ± 0.047 and the NP40-soluble protein abundance ([4]; concentration: 6mM) was 0.974 ± 0.03. It also gave an NP40-soluble protein abundance ([4]; concentration: 8mM) of 0.989 ± 0.033 and an NP40-soluble protein abundance ([4]; concentration: 10mM) of 0.987 ± 0.039.
